Record: PubChem BioAssay AID493246 (Drosophila RNAi Screening Center, 2011)
The screen tested about 21,000 reagents; shown is an unselected part of those that have a named target and a result. In the full data, 429 (2%) are marked active. 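Values are raw and not normalised between plates; calls rest on per-plate z-scores that were not deposited.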 The numbers tell different reagents against one gene apart. A plus sign joins genes that one reagent is predicted to hit. No sequences are given here. Not given: the amount of reagent, the time to read-out.

Purpose: 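Genes fly cells need to grow and stay alive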 (primary screen)
Cell system: Drosophila Kc and S2R+ cells
Knock-down reagent: long dsRNA against Drosophila genes
Measurement: 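Raw, unnormalised count of remaining cells in each well; per-plate z-scores of cell number underlie the calls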
Scale: Kc cell number and S2R+ cell number: higher = more cells remaining
Active means: 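Active when the per-plate z-score of cell number is 3 or more in the direction of fewer cells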

no.	gene	dsRNA no.	Kc cell number, rep 1	Kc cell number, rep 2	S2R+ cell number, rep 1	S2R+ cell number, rep 2	outcome
1	CG2641	1	1.53e6	1.70e6	1.22e6	1.30e6	inactive
2	CG33791 + CG12105 + CG18170	1	1.41e6	1.49e6	1.18e6	1.24e6	inactive
3	CG6707	1	1.26e6	1.28e6	1.29e6	1.37e6	inactive
4	CG2616	1	1.24e6	1.44e6	1.15e6	1.24e6	inactive
5	CG3246	1	1.36e6	1.33e6	1.12e6	1.24e6	inactive
6	Gr77a	1	1.34e6	1.64e6	1.15e6	1.36e6	inactive
7	CG42527 (retired record) + Hr4	1	1.11e6	1.08e6	5.12e5	6.05e5	active
8	lva	1	6.58e5		8.67e5		inactive
9	Gld2	1	9.84e5	9.97e5	5.91e5	6.71e5	inactive
10	CG14088	1	1.53e6	1.91e6	1.25e6	1.32e6	inactive
11	CG42717	1	1.36e6	1.45e6	1.07e6	1.25e6	inactive
12	Dys	1	1.76e6	1.79e6	1.09e6	1.12e6	inactive
13	Dys	2	1.39e6	1.39e6	1.02e6	1.08e6	inactive
14	Dys	3	1.30e6	1.28e6	1.05e6	1.17e6	inactive
15	Dys	4	1.33e6	1.33e6	1.08e6	1.16e6	inactive
16	Dys	5	1.23e6	1.15e6	1.09e6	1.21e6	inactive
17	Dys	6	1.39e6	1.40e6	1.12e6	1.26e6	inactive
18	Dys	7	1.33e6	1.31e6	1.01e6	1.08e6	inactive
19	CG13653	1	1.47e6	1.46e6	1.01e6	1.12e6	inactive
20	CG13376	1	1.55e6	1.53e6	1.19e6	1.21e6	inactive
21	ccb	1	1.58e6	1.59e6	1.13e6	1.26e6	inactive
22	His4:CG33883 + His4:CG33889 + His4:CG33899 + 20 more	1	1.37e6	1.41e6	8.54e5	8.98e5	inactive
23	CG18473	1	1.83e6	1.98e6	1.40e6	1.56e6	inactive
24	CG1441	1	1.34e6	1.41e6	1.11e6	1.17e6	inactive
25	Smyd4-3	1	1.34e6	1.43e6	1.09e6	1.16e6	inactive
26	BicD	1	1.22e6	1.47e6	1.07e6	1.14e6	inactive
27	CG9717	1	1.42e6	1.41e6	9.83e5	1.10e6	inactive
28	Su(var)2-HP2	1	1.41e6	1.45e6	1.21e6	1.32e6	inactive
29	ng4	1	1.57e6	1.56e6	1.13e6	1.23e6	inactive
30	eIF2gamma	1	1.05e6	1.17e6	7.63e5	9.35e5	inactive
31	eIF2gamma	2	1.52e6	1.61e6	1.33e6	1.43e6	inactive
32	CG7377	1	1.41e6	1.39e6	1.26e6	1.32e6	inactive
33	Suv3	1	1.46e6	1.51e6	1.23e6	1.26e6	inactive
34	CG30222	1	1.78e6	1.92e6	1.45e6	3.90e5	inactive
35	CG30222	2	1.73e6	1.79e6	1.24e6	2.58e5	inactive
36	LanB2	1	1.37e6	1.49e6	1.28e6	1.27e6	inactive
37	CG10472	1	1.37e6	1.43e6	1.28e6	1.16e6	inactive
38	Cdlc2	1	1.48e6	1.48e6	9.83e5	1.06e6	inactive
39	CG31089	1	1.40e6	1.43e6	9.58e5	1.05e6	inactive
40	thw	1	1.59e6	1.73e6	1.29e6	1.47e6	inactive
41	CG13177	1	1.65e6	1.60e6	1.21e6	1.32e6	inactive
42	Femcoat	1	1.44e6	1.39e6	9.87e5	1.08e6	inactive
43	P32	1	1.32e6	1.39e6	1.08e6	1.18e6	inactive
44	CG12481	1	1.52e6	1.55e6	1.02e6	1.17e6	inactive
45	CG13855	1	1.33e6	1.33e6	1.16e6	1.28e6	inactive
46	MsR2 + CG13802 (retired record)	1	1.67e6	1.66e6	9.84e5	1.43e6	inactive
47	MsR2 + CG13802 (retired record)	2	1.50e6	1.46e6	1.04e6	1.33e6	inactive
48	esn	1	1.45e6	1.53e6	9.62e5	1.09e6	inactive
49	esn	2	1.53e6	1.58e6	1.23e6	1.26e6	inactive
50	Spn28Da	1	1.60e6	1.66e6	1.14e6	1.28e6	inactive
51	CG30020	1	1.87e6	1.92e6	1.28e6	1.55e6	inactive
52	Ir76a	1	1.50e6	1.57e6	1.19e6	1.21e6	inactive
53	Sos	1	1.57e6	1.57e6	1.17e6	1.25e6	inactive
54	Lipt1	1	5.82e5		7.63e5		inactive
55	Lipt1	2	1.43e6	1.35e6	1.14e6	1.22e6	inactive
56	Dnaaf4	1	1.54e6	1.72e6	1.30e6	1.46e6	inactive
57	CG11356	1	1.80e6	1.66e6	1.14e6	1.22e6	inactive
58	CG42523	1	1.80e6	1.79e6	1.11e6	1.30e6	inactive
59	yellow-d2	1	1.62e6	1.81e6	1.42e6	1.49e6	inactive

Called active (from the list above):
gene	dsRNA no.	Kc cell number, rep 1	Kc cell number, rep 2	S2R+ cell number, rep 1	S2R+ cell number, rep 2	outcome
CG42527 (retired record) + Hr4	1	1.11e6	1.08e6	5.12e5	6.05e5	active
